According to publication PMC5841295:
No constants are given. Whether binding was seen depends on the method and setting. For part of these data: Binding seen in cells or lysates may run through a third protein. Some results given as binding are weak or reduced against the parent protein; the word gives no strength. Tags and fused reporters may be left off the sequences shown. Each block holds one binder with its values, some of them ahead of it.

Chains of the proteins cited; added tags and fusions are not shown.
UniProt Q07812: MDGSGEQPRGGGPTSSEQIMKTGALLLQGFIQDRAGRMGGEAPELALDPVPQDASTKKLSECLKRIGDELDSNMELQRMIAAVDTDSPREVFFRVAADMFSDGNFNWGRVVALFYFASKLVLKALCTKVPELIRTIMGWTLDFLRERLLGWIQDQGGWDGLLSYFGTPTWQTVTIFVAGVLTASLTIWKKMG

Tests used:
HaloTag-Bid = biological target: T1, HaloTag-Bid (UniProt P55957); assay: pull-down; HaloTag constructs transfected into PLEK-KO + EGFP-PLEK cells; 0.5 mg/mL lysate on Magne-HaloTag beads, 1 h at room temperature, HaloTag purification buffer (50 mM Hepes, 1 mM DTT, 1 mM EDTA, 1 mM EGTA, 0.05% NP-40); blot with GFP antibody
T1 sequence: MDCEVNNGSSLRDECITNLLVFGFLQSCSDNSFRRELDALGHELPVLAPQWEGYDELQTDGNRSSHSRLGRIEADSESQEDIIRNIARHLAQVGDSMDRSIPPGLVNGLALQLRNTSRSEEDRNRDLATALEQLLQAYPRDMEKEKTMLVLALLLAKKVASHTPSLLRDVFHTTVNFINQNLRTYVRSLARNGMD

HaloTag-Bax = HaloTag-Bax (UniProt Q07812); assay: as above
MBP-Bid-HA = biological target: T2, MBP-Bid-HA (UniProt P55957); assay: pull-down; recombinant GST-Bax and MBP-Bid-HA applied to Glutathione sepharose 4B beads, washed with OG buffer (10 mM TrisHCl pH 7.4, 150 mM NaCl, 0.1% octyl glycoside); first elution with purified PLEKHN1 (and Bax) or control buffer, second elution with 30 mM reduced glutathione; both purified
T2 sequence: T1 sequence

binding (HaloTag-Bid): binds
binding (HaloTag-Bax): no binding
B1: enhanced green fluorescent protein (EGFP)-fused PLEKHN1 (protein, UniProt Q494U1-1 1-611)
chain: MGNSHCVPQAPRRLRASFSRKPSLKGNREDSARMSAGLPGPEAARSGDAAANKLFHYIPGTDILDLENQRENLEQPFLSVFKKGRRRVPVRNLGKVVHYAKVQLRFQHSQDVSDCYLELFPAHLYFQAHGSEGLTFQGLLPLTELSVCPLEGSREHAFQITGPLPAPLLVLCPSRAELDRWLYHLEKQTALLGGPRRCHSAPPQRRLTRLRTASGHEPGGSAVCASRVKLQHLPAQEQWDRLLVLYPTSLAIFSEELDGLCFKGELPLRAVHINLEEKEKQIRSFLIEGPLINTIRVVCASYEDYGHWLLCLRAVTHREGAPPLPGAESFPGSQVMGSGRGSLSSGGQTSWDSGCLAPPSTRTSHSLPESSVPSTVGCSSQHTPDQANSDRASIGRRRTELRRSGSSRSPGSKARAEGRGPVTPLHLDLTQLHRLSLESSPDAPDHTSETSHSPLYADPYTPPATSHRRVTDVRGLEEFLSAMQSARGPTPSSPLPSVPVSVPASDPRSCSSGPAGPYLLSKKGALQSRAAQRHRGSAKDGGPQPPDAPQLVSSAREGSPEPWLPLTDGRSPRRSRDPGYDHLWDETLSSSHQKCPQLGGPEASGGLVQWI

binding (MBP-Bid-HA): binds
B2: purified PLEKHN1 protein (protein, UniProt Q494U1-1 1-611)
chain: B1 chain
